These are yes or no findings as the source states them, for the method shown. In cells and extracts the contact can be indirect. Some binding calls cover weakened binding; strength is not graded here.
Target: TRP120 (from E. chaffeensis in infected THP-1 cells) (Ehrlichia chaffeensis) (UniProt Q2GI62)
Assay: co-IP; lysate of E. chaffeensis-infected THP-1 cells 70 hpi; TRP120 precipitated with immobilised rabbit α-TRP120-I1 (Pierce co-IP kit); eluates blotted for Fzd5 and Fzd8

Chains of the proteins cited; added tags and fusions are not shown. Residues count along the entry.
UniProt Q2GI62: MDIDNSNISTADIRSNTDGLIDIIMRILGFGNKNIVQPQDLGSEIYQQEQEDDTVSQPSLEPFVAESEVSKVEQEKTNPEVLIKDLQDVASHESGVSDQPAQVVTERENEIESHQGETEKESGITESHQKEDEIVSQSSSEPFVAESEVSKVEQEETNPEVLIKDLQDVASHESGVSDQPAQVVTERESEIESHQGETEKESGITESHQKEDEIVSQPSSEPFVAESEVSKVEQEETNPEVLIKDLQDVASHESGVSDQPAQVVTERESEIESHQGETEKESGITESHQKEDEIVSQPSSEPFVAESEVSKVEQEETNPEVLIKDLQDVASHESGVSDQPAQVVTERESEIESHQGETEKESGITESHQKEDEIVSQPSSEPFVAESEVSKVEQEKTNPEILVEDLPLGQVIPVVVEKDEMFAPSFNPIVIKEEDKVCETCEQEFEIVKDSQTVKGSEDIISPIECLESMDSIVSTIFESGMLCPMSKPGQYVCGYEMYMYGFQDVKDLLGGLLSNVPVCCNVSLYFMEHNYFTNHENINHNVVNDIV
UniProt Q13467, residues 27-585: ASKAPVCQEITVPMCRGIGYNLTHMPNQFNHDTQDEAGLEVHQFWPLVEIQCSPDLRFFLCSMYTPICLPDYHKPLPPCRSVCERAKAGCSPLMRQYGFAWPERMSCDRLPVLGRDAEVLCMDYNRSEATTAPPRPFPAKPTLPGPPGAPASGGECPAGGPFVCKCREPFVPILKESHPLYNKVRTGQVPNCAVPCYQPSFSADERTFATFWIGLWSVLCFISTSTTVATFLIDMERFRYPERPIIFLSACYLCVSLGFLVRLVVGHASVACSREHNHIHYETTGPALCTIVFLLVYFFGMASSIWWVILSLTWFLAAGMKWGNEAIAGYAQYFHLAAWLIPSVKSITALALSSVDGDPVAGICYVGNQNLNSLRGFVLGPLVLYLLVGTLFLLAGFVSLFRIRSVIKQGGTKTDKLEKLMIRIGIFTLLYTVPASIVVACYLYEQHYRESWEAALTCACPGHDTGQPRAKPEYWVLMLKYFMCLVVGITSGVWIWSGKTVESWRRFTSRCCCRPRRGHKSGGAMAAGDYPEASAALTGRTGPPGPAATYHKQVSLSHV
UniProt Q9H461, residues 28-694: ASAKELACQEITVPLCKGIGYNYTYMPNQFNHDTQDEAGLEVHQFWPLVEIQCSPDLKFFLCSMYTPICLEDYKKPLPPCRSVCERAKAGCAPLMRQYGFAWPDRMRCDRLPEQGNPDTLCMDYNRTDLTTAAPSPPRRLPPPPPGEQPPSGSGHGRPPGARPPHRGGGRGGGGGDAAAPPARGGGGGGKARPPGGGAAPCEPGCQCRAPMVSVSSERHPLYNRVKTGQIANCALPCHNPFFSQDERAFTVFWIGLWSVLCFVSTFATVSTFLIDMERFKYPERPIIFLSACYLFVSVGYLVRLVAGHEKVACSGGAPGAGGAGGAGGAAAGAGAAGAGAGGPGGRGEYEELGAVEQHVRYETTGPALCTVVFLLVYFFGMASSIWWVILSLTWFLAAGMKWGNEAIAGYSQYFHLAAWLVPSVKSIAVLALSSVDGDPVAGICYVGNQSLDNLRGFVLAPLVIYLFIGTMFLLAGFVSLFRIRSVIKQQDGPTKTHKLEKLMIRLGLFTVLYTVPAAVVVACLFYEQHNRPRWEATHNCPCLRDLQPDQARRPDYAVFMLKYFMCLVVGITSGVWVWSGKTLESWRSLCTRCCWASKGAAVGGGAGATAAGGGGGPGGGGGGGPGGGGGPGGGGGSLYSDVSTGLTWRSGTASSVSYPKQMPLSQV

Substance | binding
Fzd5 (endogenous, THP-1 cells) (from UniProt Q13467 27-585) (receptor) | binds
Fzd8 (endogenous, THP-1 cells) (from UniProt Q9H461 28-694) (receptor) | no binding

Source: article PMC8546699, “Ehrlichia chaffeensis TRP120 Is a Wnt Ligand Mimetic That Interacts with Wnt Receptors and Contains a Novel Repetitive Short Linear Motif That Activates Wnt Signaling” (mSphere, 2021)
